Source: PubChem BioAssay AID248 (DTP/NCI, 2004)
The list does not hold the whole screen: it gathers tests that were run many times, whatever their T/C, doses with no T/C, and many T/C values between a quarter and a half above the control. Other doses and runs of a compound stand elsewhere. T/C: endpoint of the treated group in % of that of the vehicle group. Some entries give survivors of the animals treated and no T/C: the source files T/C as zero there, which appears to mark a toxic dose or a test without result, not a measured value. Some survivor counts are full or nearly so, which does not show that the dose was tolerated: the source hardly ever lists a survival T/C far under the control, and the zero likely stands for such cases as well. Counts of survivors are from the toxicity check (mostly the fifth day) where no day follows; animals may have died later. Schedule codes are those of the source, taken here to give the interval after Q, in days (D) or hours (H), and the number of doses after X. Some entries were tested several times; the values are given in rising order. Some schedule codes hold Z or #, which are not explained here. Where survival is the endpoint, the PubChem record calls one and a half times the control and up active, and a quarter to a half above the control has no call in these data; cut-offs in other NCI protocols can differ.

Test system: L1210 leukemia ip in BDF1 mice, survival T/C
Test: NCI In Vivo Anticancer Drug Screen. Data for tumor model L1210 Leukemia (intraperitoneal) in B6D2F1 (BDF1) mice
Conditions: T/C endpoint: mean survival time, higher T/C = longer survival
[1] = dose: 400.0 mg/kg/injection, schedule: Q04DX003 (ip), vehicle: saline with Tween-80
[2] = dose: 400.0 mg/kg/injection, schedule: Q01DX009 (ip), vehicle: Klucel (hydroxypropylcellulose) (HPC)
[3] = dose: 100.0 mg/kg/injection, schedule: Q01DX001 (ip), vehicle: saline
[4] = dose: 200.0 mg/kg/injection, schedule: Q01DX001 (ip), vehicle: saline
[5] = dose: 400.0 mg/kg/injection, schedule: Q01DX001 (ip), vehicle: saline
[6] = dose: 200.0 mg/kg/injection, schedule: Q01DX009 (ip), vehicle: saline
[7] = dose: 200.0 mg/kg/injection, schedule: Q04DX003 (ip), vehicle: saline with Tween-80

Cc1ccc(/C(C#N)=C2C=C(Br)/C(=N\O)C=C/2Cl)cc1
survivor count (dose: 335.0 mg/kg/injection, schedule: Q01DX009 (ip), vehicle: saline with Tween-80): 3 of 6

Nc1ccnc(=S)[nH]1
survivor count (dose: 500.0 mg/kg/injection, schedule: Q01DX Z (ip), vehicle: methylcellulose (MC)): 0 of 6

O=C1c2ccccc2C(=O)N1CN1C(=O)c2ccccc2C1=O
survivor count [1]: 6 of 6

O=[N+]([O-])CC1=CCCCC1
survivor count (dose: 100.0 mg/kg/injection, schedule: Q01DX001 (ip), vehicle: Klucel (hydroxypropylcellulose) (HPC)): 1 of 6
survivor count (dose: 200.0 mg/kg/injection, schedule: Q01DX001 (ip), vehicle: Klucel (hydroxypropylcellulose) (HPC)): 0 of 6
survivor count (dose: 400.0 mg/kg/injection, schedule: Q01DX001 (ip), vehicle: Klucel (hydroxypropylcellulose) (HPC)): 0 of 6

OCC1OC(n2cnc3c([Se])ncnc32)C(O)C1O (stereo not drawn)
survivor count (dose: 200.0 mg/kg/injection, schedule: Q01DX005 (ip), vehicle: saline): 1 of 6

O=C(NCCCl)Nc1ccc(Cl)c(Cl)c1
survivor count [2]: 0 of 6

NNC(=O)C1CC2C=CC1C2 (stereo not drawn)
survivor count (dose: 400.0 mg/kg/injection, schedule: Q01DX009 (ip), vehicle: saline): 1 of 6

Cc1cc(N)c(C)c2ccncc12
survivor count (dose: 10.0 mg/kg/injection, schedule: Q01DX001 (ip), vehicle: saline): 2 of 4
survivor count (dose: 20.0 mg/kg/injection, schedule: Q01DX001 (ip), vehicle: saline): 1 of 4
survivor count (dose: 40.0 mg/kg/injection, schedule: Q01DX001 (ip), vehicle: saline): 0 of 4
survivor count (dose: 80.0 mg/kg/injection, schedule: Q01DX001 (ip), vehicle: saline): 0 of 4
survivor count [3]: 0 of 4
survivor count [4]: 0 of 4
survivor count [5]: 0 of 4

O=[N+]([O-])c1cccc(C[n+]2ccccc2C2OCCO2)c1
survivor count (dose: 55.0 mg/kg/injection, schedule: Q01DX009 (ip), vehicle: saline): 3 of 6
survivor count (dose: 80.0 mg/kg/injection, schedule: Q01DX009 (ip), vehicle: saline): 3 of 6

O=C1CCCC2C1C1(O)CCC2(O)c2cccc(O)c21 (stereo not drawn)
survivor count [6]: 0 of 6
survivor count [5]: 0 of 6

O=C(Nc1ccccc1)C(Br)c1ccccc1 (stereo not drawn)
survivor count (dose: 400.0 mg/kg/injection, schedule: Q04DX003 (ip), vehicle: saline): 3 of 6

Cc1c(O)ccc(O)c1C
survivor count [5]: 0 of 6

COc1ccc(CNCCN2CC2)cc1
survivor count (dose: 100.0 mg/kg/injection, schedule: Q01DX009 (ip), vehicle: Klucel (hydroxypropylcellulose) (HPC)): 0 of 6
survivor count (dose: 200.0 mg/kg/injection, schedule: Q01DX009 (ip), vehicle: Klucel (hydroxypropylcellulose) (HPC)): 0 of 6
survivor count [2]: 0 of 6

Nc1nc(SCc2ccccc2)c2[nH]cnc2n1
T/C (dose: 5.0 mg/kg/injection, schedule: Q01DX Z (ip), vehicle: carboxymethylcellulose (CMC)): 136 % of control
T/C (dose: 8.0 mg/kg/injection, schedule: Q01DX Z (ip), vehicle: carboxymethylcellulose (CMC)): 126 % of control
T/C (dose: 15.0 mg/kg/injection, schedule: Q01DX Z (ip), vehicle: carboxymethylcellulose (CMC)): 141 % of control
T/C (dose: 16.0 mg/kg/injection, schedule: Q01DX010 (ip), vehicle: saline): 127 % of control
T/C (dose: 16.0 mg/kg/injection, schedule: Q01DX Z (ip), vehicle: carboxymethylcellulose (CMC)): 135 % of control
T/C (dose: 16.0 mg/kg/injection, schedule: Q01DX Z (oral), vehicle: carboxymethylcellulose (CMC)): 147 % of control
T/C (dose: 20.0 mg/kg/injection, schedule: Q01DX Z (ip), vehicle: carboxymethylcellulose (CMC)): 135 % of control
T/C (dose: 20.0 mg/kg/injection, schedule: Q03DX Z (ip), vehicle: carboxymethylcellulose (CMC)): 136 % of control
T/C (dose: 20.0 mg/kg/injection, schedule: Q07DX Z (ip), vehicle: carboxymethylcellulose (CMC)): 142 % of control
T/C (dose: 30.0 mg/kg/injection, schedule: Q01DX Z (ip), vehicle: carboxymethylcellulose (CMC)): 133 % of control
T/C (dose: 30.0 mg/kg/injection, schedule: Q03DX Z (ip), vehicle: carboxymethylcellulose (CMC)): 142 % of control
T/C (dose: 31.3 mg/kg/injection, schedule: Q01DX010 (ip), vehicle: saline): 128 % of control
T/C (dose: 32.0 mg/kg/injection, schedule: Q01DX010 (ip), vehicle: saline): 138 % of control
T/C (dose: 32.0 mg/kg/injection, schedule: Q01DX Z (ip), vehicle: carboxymethylcellulose (CMC)): 134 % of control
T/C (dose: 32.0 mg/kg/injection, schedule: Q01DX Z (oral), vehicle: carboxymethylcellulose (CMC)): 143 % of control
T/C (dose: 60.0 mg/kg/injection, schedule: Q03DX Z (ip), vehicle: carboxymethylcellulose (CMC)): 144 % of control
T/C (dose: 64.0 mg/kg/injection, schedule: Q01DX010 (ip), vehicle: saline): 138 % of control
T/C (dose: 82.0 mg/kg/injection, schedule: Q03DX Z (ip), vehicle: carboxymethylcellulose (CMC)): 145 % of control
T/C (dose: 195.0 mg/kg/injection, schedule: Q03DX Z (ip), vehicle: carboxymethylcellulose (CMC)): 140 % of control
T/C (dose: 195.0 mg/kg/injection, schedule: Q07DX Z (ip), vehicle: carboxymethylcellulose (CMC)): 137 % of control
survivor count (dose: 250.0 mg/kg/injection, schedule: Q01DX010 (ip), vehicle: saline): 5 of 6
T/C (dose: 292.0 mg/kg/injection, schedule: Q01DX001 (ip), vehicle: carboxymethylcellulose (CMC)): 141 % of control
T/C (dose: 292.5 mg/kg/injection, schedule: Q01DX001 (ip), vehicle: carboxymethylcellulose (CMC)): 146 % of control
survivor count (dose: 438.0 mg/kg/injection, schedule: Q01DX001 (ip), vehicle: carboxymethylcellulose (CMC)): 5 of 10

OCc1ccn2c1[C@@H](O)CC2
T/C (dose: 25.0 mg/kg/injection, schedule: Q01DX009 (ip), vehicle: saline): 143 % of control
T/C (dose: 50.0 mg/kg/injection, schedule: Q01DX009 (ip), vehicle: acetone): 147 % of control
T/C (dose: 50.0 mg/kg/injection, schedule: Q01DX009 (ip), vehicle: saline): 140 % of control
T/C (dose: 100.0 mg/kg/injection, schedule: Q01DX001 (ip), vehicle: saline, evaluated on day 30): 129 % of control
T/C (dose: 100.0 mg/kg/injection, schedule: Q01DX001 (ip), vehicle: saline, run until all animals had died): 133 % of control
T/C (dose: 100.0 mg/kg/injection, schedule: Q01DX009 (ip), vehicle: acetone): 143 % of control
survivor count (dose: 150.0 mg/kg/injection, schedule: Q01DX009 (ip), vehicle: saline): 6 of 6
T/C [4]: 139 % of control
survivor count [6]: 4 of 6 and 6 of 6
survivor count (dose: 225.0 mg/kg/injection, schedule: Q01DX009 (ip), vehicle: saline): 4 of 6
survivor count (dose: 335.0 mg/kg/injection, schedule: Q01DX009 (ip), vehicle: saline): 2 of 6

CC1CCC(C)C([N+](C)(C)C)C1 (stereo not drawn)
survivor count [3]: 1 of 6
survivor count (dose: 115.0 mg/kg/injection, schedule: Q04DX003 (ip), vehicle: saline): 4 of 6
survivor count [4]: 0 of 6
survivor count [5]: 0 of 6

CC(C)NCc1ccccc1
survivor count (dose: 400.0 mg/kg/injection, schedule: Q04DX002 (ip), vehicle: saline with Tween-80): 0 of 3

CC(C)=CCC/C(C)=C/CNC(=O)/C=C/C(=O)O
survivor count [7]: 6 of 6

CCCCn1c(O)c(C=N)c(=O)n(CCCC)c1=O
survivor count (dose: 200.0 mg/kg/injection, schedule: Q01DX009 (ip), vehicle: saline with Tween-80): 2 of 6
survivor count (dose: 400.0 mg/kg/injection, schedule: Q01DX009 (ip), vehicle: saline with Tween-80): 4 of 6

CC(C)(C)OC(=O)NC(CO)C(=O)NC(Cc1ccc(OCc2ccccc2)cc1)C(=O)NCC(=O)O (stereo not drawn)
survivor count (dose: 100.0 mg/kg/injection, schedule: Q01DX005 (ip), vehicle: saline): 2 of 4

[CH3][Pb]([CH3])([CH3])[NH]C#N
survivor count (dose: 20.0 mg/kg/injection, schedule: Q04DX003 (ip), vehicle: saline): 1 of 6
survivor count (dose: 100.0 mg/kg/injection, schedule: Q04DX003 (ip), vehicle: saline with Tween-80): 0 of 6
survivor count [7]: 0 of 6
survivor count [1]: 0 of 6
